{"source": "patent US10966951B2", "about": "“Compositions and methods for lowering triglycerides in a subject having reduced kidney function” (Amarin Pharmaceuticals Ireland Limited, priority 2017, dated 2021)", "assay_type_in_all_cases": "in vivo, human", "key": {"patients on hemodialysis": {"test_system": "patients on hemodialysis", "test": "EPA treatment of hemodialysis patients (Example 3)", "conditions": "4 g per day; compared to placebo"}, "[1]": {"test_system": "subjects with Age-Associated Memory Impairment", "test": "CDR computerized cognitive test battery, 6-week AAMI study (Example 2)", "conditions": "for Quality of Episodic Secondary Memory, LS mean difference versus placebo: overall"}, "[2]": {"test_system": "patients with reduced kidney function (eGFR<90 mL/min/1.73 m^2) and diabetes mellitus", "test": "Post-hoc ANCHOR analysis, reduced kidney function and diabetes mellitus (Example 5)", "conditions": "4 g/day; 12 weeks; compared to placebo", "protocol": "CVD-related (e.g., atherogenic) parameters were analyzed in a post-hoc study of 198 patients from the multi-center, placebo-controlled, randomized double-blind, 12-week study described in Example 1. These 198 patients have reduced kidney function (e.g., eGFR<90 mL/min/1.73 m^2 for ≥3 months) and diabetes mellitus.\n98 patients were randomized to E-EPA and 100 patients were randomized to placebo. In total, atherogenic parameters were analyzed in all 198 patients, 56% of which were male and 97% of which were white. The mean age of the 198 patients was 63 years old.\nThe primary objective of this post-hoc study was to determine if and how 4 g of daily of >96% E-EPA, compared to placebo, affects patients with reduced kidney function, diabetes mellitus, and high triglyceride levels. The secondary objective was to determine if and how 4 g daily >96% E-EPA, compared to placebo, affected CVD-related parameters in patients having a high risk for CVD and fasting TG levels 200 mg/dL and <500 mg/dL, despite treatment to LDL-C goal on statin therapy. […] CVD-parameters were analyzed for median difference in percent change from baseline to week 12 in subjects receiving 4 g/day of E-EPA and those receiving the placebo.\nThe median difference in lipid/lipoprotein, apolipoprotein, and inflammatory parameters were determined from baseline to week 12 for 4/g day of E-EPA compared to placebo."}}, "note": "For at least one compound, name, drawing or mass did not settle the structure."}
{"molecule": "CC/C=C\\C/C=C\\C/C=C\\C/C=C\\C/C=C\\CCCC(=O)OCC", "note": "[E-EPA, ethyl eicosapentaenoate]", "values": [{"measurement": "EPA deficiency in hemodialysis patients", "setting": "patients on hemodialysis", "value": "corrects the EPA deficiency"}, {"measurement": "EPA/AA ratio", "setting": "patients on hemodialysis", "value": "increases the EPA/AA ratio"}, {"measurement": "cardiovascular disease risk", "setting": "patients on hemodialysis", "value": "reduces cardiovascular disease risk"}, {"measurement": "Continuity of Attention and subtask Digit Vigilance Targets Detected", "setting": "[1]; ITT", "value": "no statistically significant effect of treatment"}, {"measurement": "Immediate and Delayed Word Recall Accuracies, Word and Picture Recognition Sensitivity Indices", "setting": "[1]; ITT", "value": "no statistically significant effects of treatment"}, {"measurement": "Power of Attention", "setting": "[1]; ITT", "value": "no statistically significant effect of treatment"}, {"measurement": "Quality of Episodic Secondary Memory", "setting": "[1]; ITT", "value": "no statistically significant effect of treatment"}, {"measurement": "Self-Rated Alertness", "setting": "[1]; ITT", "value": "no statistically significant effect of treatment"}, {"measurement": "Self-Rated Calmness", "setting": "[1]; ITT", "value": "no statistically significant effect of treatment"}, {"measurement": "Self-Rated Contentment, LS mean difference to placebo", "setting": "[1]; ITT", "value": "no statistically significant effects"}, {"measurement": "Simple Reaction Time and Digit Vigilance Speed", "setting": "[1]; ITT", "value": "no statistically significant effects of treatment"}, {"measurement": "Speed of Memory and subtasks (Spatial and Numeric Working Memory Speeds, Word and Picture Recognition Speeds)", "setting": "[1]; ITT", "value": "no statistically significant effects of treatment"}, {"measurement": "Immediate Word Recall Accuracy, LS mean difference", "setting": "[1]; ITT, 1 g, AM 1, p=0.040", "value": "statistically significant decreases"}, {"measurement": "Immediate Word Recall Accuracy, LS mean difference", "setting": "[1]; ITT, 1 g, Day 14, p=0.028", "value": "statistically significant decreases"}, {"measurement": "Picture Recognition Speed", "setting": "[1]; ITT, 1 g, Day 14 at AM 2 (p=0.084) and Day 28 at AM 1 (p=0.085)", "value": "trends for benefits"}, {"measurement": "Immediate Word Recall Accuracy, LS mean difference", "setting": "[1]; ITT, 1 g, Day 14 at PM 2, p=0.020", "value": "statistically significant decreases"}, {"measurement": "Word Recognition Sensitivity Index, LS mean difference", "setting": "[1]; ITT, 1 g, Day 28, p=0.024", "value": "statistically significant decreases"}, {"measurement": "Picture Recognition Sensitivity Index, LS mean difference", "setting": "[1]; ITT, 1 g, Day 28 at AM 2 (p=0.017) and PM 2 (p=0.040)", "value": "statistically significant decrease"}, {"measurement": "Quality of Episodic Secondary Memory, LS mean difference versus placebo", "setting": "[1]; ITT, 1 g, p=0.040", "value": "statistically significant decreases"}, {"measurement": "Immediate Word Recall Accuracy, LS mean difference", "setting": "[1]; ITT, 2 g, AM 1, p=0.028", "value": "statistically significant decreases"}, {"measurement": "Immediate Word Recall Accuracy, LS mean difference", "setting": "[1]; ITT, 2 g, Day 28, p=0.017", "value": "statistically significant decreases"}, {"measurement": "Self-Rated Alertness, LS mean difference", "setting": "[1]; ITT, 2 g, Day 28, p=0.047", "value": "statistically significant decrease in ratings"}, {"measurement": "Immediate Word Recall Accuracy, LS mean difference", "setting": "[1]; ITT, 2 g, Day 28 at AM 1, p=0.006", "value": "statistically significant decreases"}, {"measurement": "Self-Rated Alertness, LS mean difference", "setting": "[1]; ITT, 2 g, Day 28 at AM 2, p=0.041", "value": "statistically significant decrease in ratings"}, {"measurement": "Quality of Episodic Secondary Memory, LS mean difference versus placebo", "setting": "[1]; ITT, 2 g, p=0.035", "value": "statistically significant decreases"}, {"measurement": "Spatial Working Memory Speed, LS mean difference", "setting": "[1]; ITT, 4 g, Day 14 at PM 1, p=0.048", "value": "statistically significant benefit"}, {"measurement": "Word Recognition Sensitivity Index, LS mean difference", "setting": "[1]; ITT, 4 g, Day 28 at PM 2, p=0.030", "value": "statistically significant decrease"}, {"measurement": "Word Recognition Sensitivity Index, LS mean difference", "setting": "[1]; ITT, 4 g, Day 42, p=0.038", "value": "statistically significant decreases"}, {"measurement": "Word Recognition Sensitivity Index, LS mean difference", "setting": "[1]; ITT, 4 g, PM 2, p=0.045", "value": "statistically significant decrease"}, {"measurement": "Self-Rated Contentment", "setting": "[1]; ITT, p<0.001", "value": "statistically significant treatment by day interaction"}, {"measurement": "Choice Reaction Time", "setting": "[1]; ITT, p=0.011", "value": "statistically significant treatment by day interaction"}, {"measurement": "Spatial Working Memory Sensitivity Index", "setting": "[1]; ITT, p=0.015", "value": "statistically significant treatment by day interaction"}, {"measurement": "Quality of Working Memory", "setting": "[1]; ITT, p=0.019", "value": "statistically significant treatment by day interaction"}, {"measurement": "Numeric Working Memory Sensitivity Index", "setting": "[1]; ITT, p=0.089", "value": "statistical trend for a treatment by day interaction"}, {"measurement": "Immediate Word Recall Accuracy, LS mean difference", "setting": "[1]; Study Per-Protocol, 1 g, AM 1, p=0.038", "value": "statistically significant decreases"}, {"measurement": "Immediate Word Recall Accuracy, LS mean difference", "setting": "[1]; Study Per-Protocol, 1 g, AM 2, p=0.048", "value": "statistically significant decreases"}, {"measurement": "Immediate Word Recall Accuracy, LS mean difference", "setting": "[1]; Study Per-Protocol, 1 g, Day 14, p=0.024", "value": "statistically significant decreases"}, {"measurement": "Immediate Word Recall Accuracy, LS mean difference", "setting": "[1]; Study Per-Protocol, 1 g, Day 14 at PM 2, p=0.019", "value": "statistically significant decreases"}, {"measurement": "Word Recognition Sensitivity Index, LS mean difference", "setting": "[1]; Study Per-Protocol, 1 g, Day 28, p=0.027", "value": "statistically significant decreases"}, {"measurement": "Picture Recognition Sensitivity Index, LS mean difference", "setting": "[1]; Study Per-Protocol, 1 g, Day 28 at AM 2 (p=0.020) and PM 2 (p=0.026)", "value": "statistically significant decreases"}, {"measurement": "Quality of Episodic Secondary Memory, LS mean difference versus placebo", "setting": "[1]; Study Per-Protocol, 1 g, p=0.043", "value": "statistically significant decreases"}, {"measurement": "Immediate Word Recall Accuracy, LS mean difference", "setting": "[1]; Study Per-Protocol, 2 g, AM 1, p=0.029", "value": "statistically significant decreases"}, {"measurement": "Immediate Word Recall Accuracy, LS mean difference", "setting": "[1]; Study Per-Protocol, 2 g, Day 28, p=0.017", "value": "statistically significant decreases"}, {"measurement": "Self-Rated Alertness, LS mean difference", "setting": "[1]; Study Per-Protocol, 2 g, Day 28, p=0.035", "value": "statistically significant decrease in ratings"}, {"measurement": "Immediate Word Recall Accuracy, LS mean difference", "setting": "[1]; Study Per-Protocol, 2 g, Day 28 at AM 1, p=0.006", "value": "statistically significant decreases"}, {"measurement": "Self-Rated Alertness, LS mean difference", "setting": "[1]; Study Per-Protocol, 2 g, Day 28 at AM 2, p=0.033", "value": "statistically significant decrease in ratings"}, {"measurement": "Quality of Episodic Secondary Memory, LS mean difference versus placebo", "setting": "[1]; Study Per-Protocol, 2 g, p=0.036", "value": "statistically significant decreases"}, {"measurement": "Word Recognition Sensitivity Index, LS mean difference", "setting": "[1]; Study Per-Protocol, 4 g, Day 42, p=0.038", "value": "statistically significant decreases"}, {"measurement": "Self-Rated Calmness, LS mean difference", "setting": "[1]; Study Per-Protocol, 4 g, Day 42 at PM 1, p=0.071", "value": "statistical trend for an increase in ratings"}, {"measurement": "Continuity of Attention", "setting": "[1]; post-hoc", "value": "no general pattern of effects"}, {"measurement": "Quality of Episodic Secondary Memory and contributing subtasks", "setting": "[1]; post-hoc", "value": "a number of decreases"}, {"measurement": "Quality of Working Memory and Numeric Working Memory Sensitivity Index", "setting": "[1]; post-hoc", "value": "only isolated improvements and declines in performance"}, {"measurement": "Choice Reaction Time", "setting": "[1]; post-hoc, 4 g, Day 42", "value": "superior to placebo at every time point"}, {"measurement": "Spatial Working Memory Sensitivity Index", "setting": "[1]; post-hoc, 4 g, Day 42, Study PP Population", "value": "overall benefit"}, {"measurement": "Simple Reaction Time", "setting": "[1]; post-hoc, 4 g, PM 2 collapsed across days and several time-points on Days 14 and 42", "value": "improvements in performance"}, {"measurement": "subtask measures of Speed of Memory", "setting": "[1]; post-hoc, mostly for 1 g versus placebo", "value": "some signs of improvement in performance"}, {"measurement": "LDL-C levels", "setting": "[2]", "value": "without increasing LDL-C levels"}, {"measurement": "other atherogenic and inflammatory parameters", "setting": "[2]", "value": "significantly improved"}]}
